Positions count from the first letter of the chain named. No constants are given. Whether binding was seen depends on the method and setting. In cells and extracts the contact can be indirect. Here binding means that the protein was enriched with, or labelled near, the bait; the list need not be complete. Sequences can lack the tags named with a protein. Values belong to the binder of their own block, whether it stands above or below them.
Experiments:
Assay in all cases: affinity purification with mass spectrometry; GFP-Trap magnetic particles on lysates of NIH3T3 and HEK293T cells stably expressing GFP-tagged paralogs (NES-GFP as control); digitonin lysis buffer pH 7.5, 200 mM NaCl; washes with 1.5 M NaCl, 0.5% Triton X-100; eluates on Coomassie gel and by nanoLC-MS/MS
PRPS2-GFP = biological target: T1, PRPS2-GFP (UniProt Q9CS42)
T1 sequence: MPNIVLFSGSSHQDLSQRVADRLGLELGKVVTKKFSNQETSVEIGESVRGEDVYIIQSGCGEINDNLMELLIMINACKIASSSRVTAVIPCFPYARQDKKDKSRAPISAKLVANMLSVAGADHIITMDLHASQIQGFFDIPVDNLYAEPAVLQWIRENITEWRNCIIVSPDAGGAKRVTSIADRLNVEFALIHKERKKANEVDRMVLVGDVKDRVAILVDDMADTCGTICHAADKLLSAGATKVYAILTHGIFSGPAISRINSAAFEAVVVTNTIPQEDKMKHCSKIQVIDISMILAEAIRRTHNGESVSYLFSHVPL

Sequences of proteins named here, by UniProt entry; tags and fusion partners are left off.
UniProt Q8R574: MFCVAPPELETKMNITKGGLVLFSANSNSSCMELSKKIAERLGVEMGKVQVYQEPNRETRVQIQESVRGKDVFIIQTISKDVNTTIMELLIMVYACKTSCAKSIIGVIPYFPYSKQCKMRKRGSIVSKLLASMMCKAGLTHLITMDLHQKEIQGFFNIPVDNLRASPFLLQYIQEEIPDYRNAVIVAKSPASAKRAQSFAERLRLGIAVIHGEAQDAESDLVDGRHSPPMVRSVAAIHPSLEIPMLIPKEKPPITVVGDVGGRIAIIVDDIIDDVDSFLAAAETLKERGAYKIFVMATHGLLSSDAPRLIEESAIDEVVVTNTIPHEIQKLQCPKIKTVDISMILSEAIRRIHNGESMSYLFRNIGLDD

PRPSAP2-GFP = biological target: T2, PRPSAP2-GFP (UniProt O60256)
T2 sequence: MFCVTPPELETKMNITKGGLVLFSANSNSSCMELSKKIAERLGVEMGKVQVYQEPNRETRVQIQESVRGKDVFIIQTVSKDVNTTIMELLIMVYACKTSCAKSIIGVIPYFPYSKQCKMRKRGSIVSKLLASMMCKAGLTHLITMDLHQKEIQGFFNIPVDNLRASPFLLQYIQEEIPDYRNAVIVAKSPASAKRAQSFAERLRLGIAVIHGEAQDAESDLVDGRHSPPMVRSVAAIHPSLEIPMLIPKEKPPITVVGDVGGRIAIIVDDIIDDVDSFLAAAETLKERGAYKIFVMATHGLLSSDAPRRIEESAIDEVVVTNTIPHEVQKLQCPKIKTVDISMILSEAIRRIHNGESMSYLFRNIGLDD

PRPS1-GFP = biological target: T3, PRPS1-GFP (UniProt Q9D7G0)
T3 sequence: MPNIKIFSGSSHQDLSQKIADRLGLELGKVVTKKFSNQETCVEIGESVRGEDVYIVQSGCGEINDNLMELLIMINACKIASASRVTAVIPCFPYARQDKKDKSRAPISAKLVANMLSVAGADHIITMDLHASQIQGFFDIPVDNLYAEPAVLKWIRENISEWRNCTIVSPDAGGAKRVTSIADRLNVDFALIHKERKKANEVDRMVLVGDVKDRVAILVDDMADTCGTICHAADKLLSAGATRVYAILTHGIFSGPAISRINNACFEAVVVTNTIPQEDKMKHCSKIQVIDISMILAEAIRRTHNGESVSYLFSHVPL

PRPSAP1-GFP = biological target: T4, PRPSAP1-GFP (UniProt Q14558)
T4 sequence: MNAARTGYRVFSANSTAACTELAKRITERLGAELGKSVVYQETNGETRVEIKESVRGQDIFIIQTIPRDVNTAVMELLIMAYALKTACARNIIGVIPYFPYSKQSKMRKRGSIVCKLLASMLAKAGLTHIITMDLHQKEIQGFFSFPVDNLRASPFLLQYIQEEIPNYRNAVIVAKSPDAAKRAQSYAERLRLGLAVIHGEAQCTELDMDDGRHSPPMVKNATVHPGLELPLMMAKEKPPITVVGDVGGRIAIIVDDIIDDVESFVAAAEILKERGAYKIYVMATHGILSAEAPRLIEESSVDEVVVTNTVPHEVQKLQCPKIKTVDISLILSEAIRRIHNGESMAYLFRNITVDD

B3: PRPS2 (endogenous, mouse) (enzyme, UniProt Q9CS42 1-318, looked up)
chain: T1 sequence
notes: PRPS2, endogenous in mouse cells and tissues; also called P2; phosphoribosyl pyrophosphate synthetase 2; source: endogenous, NIH3T3 lysate (parental and CRISPR knockout lines); endogenous, C57BL/6 mouse liver, kidney and lung lysates
binding (PRPS1-GFP): binds
binding (PRPSAP2-GFP): binds
binding (PRPSAP1-GFP): binds

B4: PRPS2 (endogenous, human) (enzyme, UniProt P11908-1 1-318)
chain: T1 sequence with T160A, R163K, S263N, S285T
binding (PRPS1-GFP): binds
binding (PRPSAP2-GFP): binds
binding (PRPSAP1-GFP): binds

B5: PRPS1 (endogenous, human) (enzyme, UniProt P60891-1 1-318)
chain: T3 sequence
binding (PRPS2-GFP): binds

B6: PRPS1 (endogenous, mouse) (enzyme, UniProt Q9D7G0 1-318)
chain: T3 sequence
binding (PRPS2-GFP): binds

B9: PRPS1L1 (endogenous, human) (enzyme, UniProt P21108 1-318)
chain: MPNIKIFSGSSHQDLSQKIADRLGLELGKVVTKKFSNQETCVEIDESVRGEDVYIVQSGCGEINDSLMELLIMINACKIASASRVTAVIPCFPYARQDKKDKSRSPISAKLVANMLSIAGADHIITMDLHASQIQGFFDIPVDNLYAEPTVLKWIRENIPEWKNCIIVSPDAGGAKRVTSIADQLNVDFALIHKERKKANEVDCIVLVGDVNDRVAILVDDMADTCVTICLAADKLLSAGATRVYAILTHGIFSGPAISRINTACFEAVVVTNTIPQDEKMKHCSKIRVIDISMILAEAIRRTHNGESVSYLFSHVPL
binding (PRPS1-GFP): binds

Further lines, results first:

binding (PRPS2-GFP): binds
binding (PRPSAP2-GFP): binds
B1: PRPSAP1 (endogenous, human) (protein, UniProt Q14558 1-356)
chain: T4 sequence

binding (PRPS2-GFP): binds
binding (PRPSAP2-GFP): binds
B2: PRPSAP1 (endogenous, mouse) (protein, UniProt Q9D0M1 1-356)
chain: T4 sequence with S301P, V302I, V315L

binding (PRPS2-GFP): binds
binding (PRPSAP1-GFP): binds
B7: PRPSAP2 (endogenous, mouse) (protein, UniProt Q8R574 1-369)
chain: T2 sequence with T5A, V78I, R309L, V328I

binding (PRPS2-GFP): binds
binding (PRPSAP1-GFP): binds
B8: PRPSAP2 (endogenous, human) (protein, UniProt O60256-1 1-369)
chain: T2 sequence

From PMC12238573 (Nature Communications, 2025)
